Source: the supplement of paper PMC6411743
± gives the standard deviation of the averaged measurements. This is one part of the list.

By UniProt entry, the sequences of proteins in these tests, tags left out. Where a name states a change or a piece, a line headed by the entry shows the natural chain unless it says otherwise.
UniProt Q9ULV3: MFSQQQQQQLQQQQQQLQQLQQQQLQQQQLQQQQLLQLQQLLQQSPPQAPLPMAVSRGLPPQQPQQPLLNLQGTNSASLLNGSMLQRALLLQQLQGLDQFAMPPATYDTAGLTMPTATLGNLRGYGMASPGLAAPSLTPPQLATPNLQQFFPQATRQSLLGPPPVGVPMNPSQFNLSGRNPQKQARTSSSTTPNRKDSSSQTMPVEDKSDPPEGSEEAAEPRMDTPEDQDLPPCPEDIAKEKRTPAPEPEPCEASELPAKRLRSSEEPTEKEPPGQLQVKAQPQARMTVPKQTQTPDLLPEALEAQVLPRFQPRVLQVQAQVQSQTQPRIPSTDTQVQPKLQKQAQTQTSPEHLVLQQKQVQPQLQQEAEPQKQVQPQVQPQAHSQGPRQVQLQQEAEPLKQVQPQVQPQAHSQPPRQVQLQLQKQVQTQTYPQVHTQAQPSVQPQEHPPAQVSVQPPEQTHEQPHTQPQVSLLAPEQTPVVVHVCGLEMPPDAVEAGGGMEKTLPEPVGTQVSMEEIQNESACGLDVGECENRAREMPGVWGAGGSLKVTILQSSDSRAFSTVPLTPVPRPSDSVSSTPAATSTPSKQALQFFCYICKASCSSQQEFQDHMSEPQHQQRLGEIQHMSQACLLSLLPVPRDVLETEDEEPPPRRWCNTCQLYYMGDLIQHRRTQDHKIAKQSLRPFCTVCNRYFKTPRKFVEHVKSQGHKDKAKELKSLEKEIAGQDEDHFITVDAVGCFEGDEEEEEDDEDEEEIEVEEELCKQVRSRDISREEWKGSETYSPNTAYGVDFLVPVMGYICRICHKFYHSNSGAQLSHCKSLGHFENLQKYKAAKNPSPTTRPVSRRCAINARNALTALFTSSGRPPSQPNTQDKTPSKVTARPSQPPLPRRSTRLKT
UniProt Q96A26: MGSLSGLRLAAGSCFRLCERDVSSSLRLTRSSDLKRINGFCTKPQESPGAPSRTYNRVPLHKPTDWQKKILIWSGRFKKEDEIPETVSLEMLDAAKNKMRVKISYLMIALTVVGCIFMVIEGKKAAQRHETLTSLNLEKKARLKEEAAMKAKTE
UniProt Q9BRP4: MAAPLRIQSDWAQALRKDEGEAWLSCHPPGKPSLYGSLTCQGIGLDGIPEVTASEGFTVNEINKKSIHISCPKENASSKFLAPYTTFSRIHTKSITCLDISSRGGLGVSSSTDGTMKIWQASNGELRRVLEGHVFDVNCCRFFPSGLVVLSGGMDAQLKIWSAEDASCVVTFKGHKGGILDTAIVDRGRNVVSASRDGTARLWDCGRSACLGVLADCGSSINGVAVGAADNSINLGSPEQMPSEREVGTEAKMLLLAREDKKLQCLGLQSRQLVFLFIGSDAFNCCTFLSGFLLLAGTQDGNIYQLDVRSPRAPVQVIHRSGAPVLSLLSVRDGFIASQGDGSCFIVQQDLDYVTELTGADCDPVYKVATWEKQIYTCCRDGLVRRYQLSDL
UniProt P36873, whole entry, looked up: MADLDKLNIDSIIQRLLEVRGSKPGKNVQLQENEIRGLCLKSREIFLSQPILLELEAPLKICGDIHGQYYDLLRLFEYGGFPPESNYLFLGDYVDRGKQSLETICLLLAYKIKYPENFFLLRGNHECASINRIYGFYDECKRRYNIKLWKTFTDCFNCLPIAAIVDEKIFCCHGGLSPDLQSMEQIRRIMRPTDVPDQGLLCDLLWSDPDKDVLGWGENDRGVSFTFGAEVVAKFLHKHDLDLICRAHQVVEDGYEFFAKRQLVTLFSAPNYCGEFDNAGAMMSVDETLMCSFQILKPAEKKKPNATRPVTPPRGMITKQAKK
UniProt P07766, whole entry: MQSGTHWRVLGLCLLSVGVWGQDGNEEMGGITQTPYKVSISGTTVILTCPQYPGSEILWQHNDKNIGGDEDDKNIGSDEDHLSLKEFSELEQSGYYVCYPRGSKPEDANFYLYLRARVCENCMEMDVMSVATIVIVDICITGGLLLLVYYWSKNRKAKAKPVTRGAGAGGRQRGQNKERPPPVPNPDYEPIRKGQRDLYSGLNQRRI

Compound: Nc1nc2c(ncn2[C@@H]2O[C@H](COP(=O)(O)OP(=O)(O)OP(=O)(O)O)[C@@H](O)[C@H]2O)c(=O)[nH]1 [guanosine triphosphate]
Assay: NP40-soluble protein abundance relative to vehicle (solubility fold change) (ratio); higher = more soluble protein in presence of GTP
Description: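 Solubility proteome profiling in Jurkat crude lysate. Lysate was treated with Mg-GTP (0.1-10 mM) for 10 min at room temperature and 3 min at 37 °C, then solubilised with 0.8% NP40 and benzonase, followed by ultracentrifugation. Proteins were quantified by TMT10 LC-MS/MS; the value is the NP40-soluble abundance relative to the NP40-processed vehicle, from 3 independent experiments.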

Target | NP40-soluble protein abundance (concentration: 0.1mM) | NP40-soluble protein abundance (concentration: 0.5mM) | NP40-soluble protein abundance (concentration: 1mM) | NP40-soluble protein abundance (concentration: 2mM) | NP40-soluble protein abundance (concentration: 4mM) | NP40-soluble protein abundance (concentration: 6mM) | NP40-soluble protein abundance (concentration: 8mM) | NP40-soluble protein abundance (concentration: 10mM)
F5H2X7 and related entries (UniProt Q9ULV3) | 1.03 ± 0.059 | 1.01 ± 0.097 | 1.03 ± 0.047 | 0.981 ± 0.1 | 1 ± 0.06 | 0.984 ± 0.08 | 1.03 ± 0.041 | 1.01 ± 0.052
F8W7Q4 and related entries (UniProt Q96A26) | 0.934 ± 0.1 | 0.968 ± 0.15 | 0.957 ± 0.085 | 0.893 ± 0.088 | 0.84 ± 0.1 | 0.886 ± 0.11 | 0.831 ± 0.11 | 0.941 ± 0.091
F5H0C4 and related entries (UniProt Q9BRP4) | 1.14 ± 0.12 | 1.11 ± 0.18 | 1.07 ± 0.1 | 1.12 ± 0.2 | 1.11 ± 0.12 | 1.09 ± 0.16 | 1.1 ± 0.11 | 1.07 ± 0.14
F8VYE8 and related entries (UniProt P36873) | 1.07 ± 0.016 | 1.07 ± 0.044 | 0.962 ± 0.01 | 0.972 ± 0.06 | 0.959 ± 0.089 | 0.965 ± 0.067 | 0.955 ± 0.058 | 0.925 ± 0.096
E9PSH8 and related entries (UniProt P07766) | 0.955 ± 0.049 | 0.991 ± 0.076 | 0.986 ± 0.071 | 0.958 ± 0.085 | 0.962 ± 0.082 | 0.96 ± 0.082 | 0.978 ± 0.068 | 0.983 ± 0.11
